# Test results: the supplement of paper PMC8728848
# The other results are listed elsewhere or left out.
# B1: PEB1 (Campylobacter jejuni), Q0P9X8 (protein)
# chain: MVFRKSLLKLAVFALGACVAFSNANAAEGKLESIKSKGQLIVGVKNDVPHYALLDQATGEIKGFEVDVAKLLAKSILGDDKKIKLVAVNAKTRGPLLDNGSVDAVIATFTITPERKRIYNFSEPYYQDAIGLLVLKEKKYKSLADMKGANIGVAQAATTKKAIGEAAKKIGIDVKFSEFPDYPSIKAALDAKRVDAFSVDKSILLGYVDDKSEILPDSFEPQSYGIVTKKDDPAFAKYVDDFVKEHKNEIDALAKKWGL
# How the values were obtained:
# Assay in all cases: glycan array binding signal (z-score within array); higher = stronger binding
# Conditions in all cases: glycan notation: IUPAC condensed, linker removed
# [1] = biological target: GlcNAc(a1-4)Gal(b1-4)GalNAc
# In short: (§1)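 The binding signal is a Z-score computed within each array and averaged over linkers. Arrays of the same protein sequence at different concentrations or buffers were also averaged together. Data originate from 3228 arrays in the Consortium for Functional Glycomics database, kept only where the protein sequence was available.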
# [2] = biological target: GlcNAc(a1-4)Gal(b1-4)GlcNAc
# In short: as §1
# [3] = biological target: GlcNAc(a1-4)Gal(b1-4)GlcNAc(b1-3)Gal(b1-4)Glc
# In short: as §1
# [4] = biological target: GlcNAc(a1-4)Gal(b1-4)GlcNAc(b1-3)Gal(b1-4)GlcNAc
# In short: as §1
# [5] = biological target: GlcNAc(a1-4)Gal(b1-4)GlcNAc(b1-3)Gal(b1-4)GlcNAc(b1-3)Gal(b1-4)GlcNAc
# In short: as §1
# [6] = biological target: GlcNAc(a1-4)Gal(b1-4)GlcNAc(b1-3)Gal(b1-4)[Fuc(a1-3)]GlcNAc(b1-3)Gal(b1-4)[Fuc(a1-3)]GlcNAc
# In short: as §1
# [7] = biological target: GlcNAc(a1-6)Gal(b1-4)GlcNAc
# In short: as §1
# [8] = biological target: GlcNAc(b1-2)Gal(b1-3)GalNAc
# In short: as §1
# [9] = biological target: GlcNAc(b1-2)Man(a1-3)[GlcNAc(b1-2)Man(a1-6)]Man(b1-4)GlcNAc(b1-4)GlcNAc
# In short: as §1
# [10] = biological target: GlcNAc(b1-2)Man(a1-3)[GlcNAc(b1-2)Man(a1-6)]Man(b1-4)GlcNAc(b1-4)[Fuc(a1-6)]GlcNAc
# In short: as §1
# [11] = biological target: GlcNAc(b1-2)[GlcNAc(b1-4)]Man(a1-3)[GlcNAc(b1-2)Man(a1-6)]Man(b1-4)GlcNAc(b1-4)GlcNAc
# In short: as §1
# [12] = biological target: GlcNAc(b1-3)Gal
# In short: as §1
# [13] = biological target: GlcNAc(b1-3)Gal(b1-3)GalNAc
# In short: as §1
# [14] = biological target: GlcNAc(b1-3)Gal(b1-4)Glc
# In short: as §1
# [15] = biological target: GlcNAc(b1-3)Gal(b1-4)GlcNAc
# In short: as §1
# [16] = biological target: GlcNAc(b1-3)Gal(b1-4)GlcNAc(b1-3)Gal(b1-4)GlcNAc
# In short: as §1
# [17] = biological target: GlcNAc(b1-3)GalNAc
# In short: as §1
# [18] = biological target: GlcNAc(b1-3)Man
# In short: as §1
# [19] = biological target: GlcNAc(b1-3)[GlcNAc(b1-4)][GlcNAc(b1-6)]GlcNAc
# In short: as §1
# [20] = biological target: GlcNAc(b1-3)[GlcNAc(b1-6)]Gal(b1-4)GlcNAc
# In short: as §1
# [21] = biological target: GlcNAc(b1-3)[GlcNAc(b1-6)]GalNAc
# In short: as §1
# [22] = biological target: GlcNAc(b1-4)Gal(b1-4)GlcNAc
# In short: as §1
# [23] = biological target: GlcNAc(b1-4)GlcNAc
# In short: as §1
# [24] = biological target: GlcNAc(b1-4)GlcNAc(b1-4)GlcNAc
# In short: as §1
# [25] = biological target: GlcNAc(b1-4)GlcNAc(b1-4)GlcNAc(b1-4)GlcNAc(b1-4)GlcNAc
# In short: as §1
# [26] = biological target: GlcNAc(b1-4)GlcNAc(b1-4)GlcNAc(b1-4)GlcNAc(b1-4)GlcNAc(b1-4)GlcNAc
# In short: as §1
# [27] = biological target: GlcNAc(b1-4)[GlcNAc(b1-6)]GalNAc
# In short: as §1
# [28] = biological target: GlcNAc(b1-6)Gal(b1-4)GlcNAc
# In short: as §1
# [29] = biological target: GlcNAc(b1-6)GalNAc
# In short: as §1
# [30] = biological target: GlcNAc3Prop(b1-4)GlcNAc
# In short: as §1
# [31] = biological target: GlcNAc6S(b1-3)Gal(b1-4)GlcNAc
# In short: as §1
# [32] = biological target: Kdn(a2-3)Gal(b1-3)GalNAc
# In short: as §1
# [33] = biological target: Kdn(a2-3)Gal(b1-3)GlcNAc
# In short: as §1
# [34] = biological target: Kdn(a2-3)Gal(b1-4)Glc
# In short: as §1
# [35] = biological target: Kdn(a2-3)Gal(b1-4)GlcNAc
# In short: as §1
binder,measurement,setting,value
B1,glycan array binding signal (z-score),[1],0.242
same,glycan array binding signal (z-score),[2],0.303
same,glycan array binding signal (z-score),[3],0.59
same,glycan array binding signal (z-score),[4],-0.834
same,glycan array binding signal (z-score),[5],-1.47
same,glycan array binding signal (z-score),[6],0.887
same,glycan array binding signal (z-score),[7],-0.577
same,glycan array binding signal (z-score),[8],-0.665
same,glycan array binding signal (z-score),[9],-0.776
same,glycan array binding signal (z-score),[10],0.009
same,glycan array binding signal (z-score),[11],0.096
same,glycan array binding signal (z-score),[12],0.087
same,glycan array binding signal (z-score),[13],1.53
same,glycan array binding signal (z-score),[14],-1.36
same,glycan array binding signal (z-score),[15],-0.193
same,glycan array binding signal (z-score),[16],-0.747
same,glycan array binding signal (z-score),[17],-1.2
same,glycan array binding signal (z-score),[18],0.653
same,glycan array binding signal (z-score),[19],1.61
same,glycan array binding signal (z-score),[20],-1.2
same,glycan array binding signal (z-score),[21],-0.73
same,glycan array binding signal (z-score),[22],0.196
same,glycan array binding signal (z-score),[23],-0.495
same,glycan array binding signal (z-score),[24],-0.001
same,glycan array binding signal (z-score),[25],-1.28
same,glycan array binding signal (z-score),[26],-0.169
same,glycan array binding signal (z-score),[27],-0.069
same,glycan array binding signal (z-score),[28],-0.212
same,glycan array binding signal (z-score),[29],-0.444
same,glycan array binding signal (z-score),[30],-0.681
same,glycan array binding signal (z-score),[31],0.542
same,glycan array binding signal (z-score),[32],-0.677
same,glycan array binding signal (z-score),[33],-0.889
same,glycan array binding signal (z-score),[34],-0.038
same,glycan array binding signal (z-score),[35],0.348
